Data published in the supplement of paper PMC7238544.
Structures can show the parent of a compound that is named as a salt. ± gives the standard deviation of the averaged measurements. This is one part of the list. The data scatter; read single values as rough.

Columns and labels:
hAMSC donor 1 [1] = experiment: Hoechst total cell count ratio vs vehicle control; higher = more cells (less toxicity)
hAMSC donor 2 [2] = experiment: as above
hAMSC donor 1 [3] = experiment: transgenic luciferase activity (RLU/mg protein) fold change vs vehicle control (ratio); higher = more transgene expression
hAMSC donor 2 [4] = experiment: as above
hAMSC donor 1 [5] = experiment: transfection efficiency (EGFP+ cells / Hoechst count) fold change vs vehicle control (ratio); hAMSC are human adipose-derived mesenchymal stem cells given an EGFP-luciferase plasmid by lipofection; higher = enhanced transfection
hAMSC donor 2 [6] = experiment: as above
[7] = priming compound concentration 0.2 µM
[8] = priming compound concentration 1.7 µM
[9] = priming compound concentration 13 µM

| SMILES | Hoechst total cell count ratio (hAMSC donor 1 [1]; [7]) | Hoechst total cell count ratio (hAMSC donor 1 [1]; [8]) | Hoechst total cell count ratio (hAMSC donor 1 [1]; [9]) | Hoechst total cell count ratio (hAMSC donor 2 [2]; [7]) | Hoechst total cell count ratio (hAMSC donor 2 [2]; [8]) | Hoechst total cell count ratio (hAMSC donor 2 [2]; [9]) | transgenic luciferase activity (hAMSC donor 1 [3]; [8]) | transgenic luciferase activity (hAMSC donor 2 [4]; [7]) | transgenic luciferase activity (hAMSC donor 2 [4]; [8]) | transfection efficiency (hAMSC donor 1 [5]; [7]) | transfection efficiency (hAMSC donor 1 [5]; [8]) | transfection efficiency (hAMSC donor 1 [5]; [9]) | transfection efficiency (hAMSC donor 2 [6]; [7]) | transfection efficiency (hAMSC donor 2 [6]; [8]) | transfection efficiency (hAMSC donor 2 [6]; [9]) | transgenic luciferase activity (hAMSC donor 2 [4]; [9]) | transgenic luciferase activity (hAMSC donor 1 [3]; [9]) |
| --- | --- | --- | --- | --- | --- | --- | --- | --- | --- | --- | --- | --- | --- | --- | --- | --- | --- |
| COc1cc(N)c(Cl)cc1C(=O)NC1CCN(CCCOc2ccc(F)cc2)CC1OC (centres undefined) [Cisapride hydrate] | 1.07 ± 0.15 | 1.14 ± 0.091 | 1.15 ± 0.1 | 1.2 ± 0.13 | 1.41 ± 0.3 | 1.1 ± 0.15 | 1.07 ± 0.4 | 0.885 ± 0.34 | 0.835 ± 0.05 | 1.15 ± 0.18 | 0.964 ± 0.13 | 1.38 ± 0.64 | 1.15 ± 0.15 | 0.851 ± 0.25 | 0.857 ± 0.14 | – | – |
| Cc1sc(N)c(C(=O)c2cccc(C(F)(F)F)c2)c1C | 1.16 ± 0.12 | 1.43 ± 0.034 | 1.49 ± 0.085 | 0.888 ± 0.1 | 1.4 ± 0.27 | 1.28 ± 0.11 | 0.841 ± 0.64 | – | 0.629 ± 0.14 | 0.958 ± 0.21 | 1.08 ± 0.16 | 0.9 ± 0.14 | 0.982 ± 0.14 | 1.1 ± 0.088 | 0.844 ± 0.034 | 0.67 ± 0.077 | – |
| CC(C[N+](C)(C)C)OC(N)=O (centres undefined) [Bethanechol chloride] | 1.18 ± 0.16 | 1.48 ± 0.17 | 1.26 ± 0.23 | 1.08 ± 0.085 | 1.25 ± 0.013 | 1.36 ± 0.16 | – | 0.941 ± 0.15 | – | 1.14 ± 0.23 | 0.666 ± 0.19 | 1.08 ± 0.071 | 1.4 ± 0.21 | 0.949 ± 0.027 | 0.927 ± 0.15 | 0.593 ± 0.064 | 1.76 ± 1.4 |
| CN(C)CCCN1c2ccccc2CCc2ccc(Cl)cc21 [Clomipramine hydrochloride] | 1.3 ± 0.14 | 1.82 ± 0.13 | 1.44 ± 0.17 | 1.07 ± 0.047 | 1.21 ± 0.018 | 1.77 ± 0.25 | – | 0.618 ± 0.24 | – | 1.16 ± 0.25 | 0.685 ± 0.18 | 0.516 ± 0.19 | 1.05 ± 0.11 | 0.8 ± 0.068 | 0.564 ± 0.11 | 0.289 ± 0.06 | 0.555 ± 0.22 |
| CNS(=O)(=O)Cc1ccc2[nH]cc(CCN(C)C)c2c1 [Sumatriptan succinate] | 1.41 ± 0.043 | 1.21 ± 0.25 | 1.39 ± 0.097 | 1.33 ± 0.072 | 1.2 ± 0.1 | 1.22 ± 0.1 | 1.37 ± 0.24 | – | 0.63 ± 0.48 | 0.969 ± 0.15 | 1.15 ± 0.36 | 1.35 ± 0.57 | 0.851 ± 0.23 | 0.87 ± 0.11 | 1.03 ± 0.047 | 0.669 ± 0.15 | – |
| COCc1c(C(C)C)nc(C(C)C)c(/C=C/[C@@H](O)C[C@@H](O)CC(=O)O)c1-c1ccc(F)cc1 [Cerivastatin sodium] | 1.04 ± 0.14 | 0.778 ± 0.16 | 0.382 ± 0.091 | 1.32 ± 0.22 | 1.06 ± 0.044 | 0.632 ± 0.085 | 0.991 ± 0.32 | – | 0.753 ± 0.35 | 1.1 ± 0.2 | 2.72 ± 1.6 | – | 1.02 ± 0.22 | 1.4 ± 0.088 | 2.62 ± 0.17 | 0.814 ± 0.072 | – |
| CC(=O)NCCCCCCNC(C)=O [Hexamethylenebisacetamide] | 1.3 ± 0.16 | 1.47 ± 0.064 | 1.55 ± 0.29 | 1.38 ± 0.025 | 1.38 ± 0.047 | 1.2 ± 0.049 | 0.334 ± 0.23 | – | 0.907 ± 0.097 | 0.898 ± 0.24 | 1.1 ± 0.21 | 0.753 ± 0.017 | 0.82 ± 0.057 | 1.01 ± 0.13 | 1 ± 0.085 | 0.903 ± 0.31 | – |
| Nc1ccc(S(=O)(=O)c2ccc(N)cc2)cc1 [Dapsone] | 1.12 ± 0.2 | 1.56 ± 0.17 | 1.54 ± 0.036 | 1.25 ± 0.11 | 1.09 ± 0.12 | 1.12 ± 0.24 | – | 0.751 ± 0.093 | – | 1.14 ± 0.27 | 1.34 ± 0.26 | 0.98 ± 0.048 | 1.33 ± 0.25 | 1.04 ± 0.065 | 1.67 ± 0.3 | 1.97 ± 0.6 | 2.96 ± 0.46 |
| OCCOCCN1CCN(C2=Nc3ccccc3Sc3ccccc32)CC1 [Quetiapine fumarate] | 1.32 ± 0.037 | 1.36 ± 0.14 | 1.43 ± 0.11 | 1.05 ± 0.24 | 1.51 ± 0.059 | 1.35 ± 0.18 | 1.04 ± 0.34 | – | 0.887 ± 0.18 | 1.08 ± 0.45 | 0.71 ± 0.15 | 0.903 ± 0.37 | 0.955 ± 0.14 | 0.883 ± 0.12 | 0.941 ± 0.12 | 0.814 ± 0.21 | – |
| CC(N)C12CC3CC(CC(C3)C1)C2 (centres undefined) [Flumadine hydrochloride] | 1.06 ± 0.054 | 1.01 ± 0.039 | 0.968 ± 0.065 | 1.21 ± 0.13 | 1.38 ± 0.29 | 1.43 ± 0.25 | 0.653 ± 0.2 | 0.864 ± 0.16 | 1.089 ± 0.0053 | 0.916 ± 0.18 | 0.533 ± 0.13 | 1.5 ± 0.58 | 1.13 ± 0.28 | 1.17 ± 0.2 | 1.05 ± 0.31 | – | – |
| COc1ccc2c(c1)c(CC(=O)O)c(C)n2C(=O)c1ccc(Cl)cc1 [Indomethacin hydrate] | 1.25 ± 0.039 | 1.18 ± 0.051 | 1.34 ± 0.074 | 1.08 ± 0.079 | 1.37 ± 0.19 | 1.22 ± 0.12 | 1.15 ± 0.39 | – | 0.711 ± 0.049 | 1 ± 0.37 | 1.21 ± 0.23 | 1.26 ± 0.29 | 1.18 ± 0.056 | 1.03 ± 0.19 | 0.967 ± 0.13 | 0.658 ± 0.2 | – |
| O=C1CC2(CCCC2)CC(=O)N1CCCCN1CCN(c2ncccn2)CC1 [Buspirone hydrochloride] | 1.31 ± 0.098 | 1.92 ± 0.38 | 1.38 ± 0.14 | 1.08 ± 0.088 | 1.06 ± 0.063 | 1.32 ± 0.14 | – | 0.597 ± 0.21 | – | 0.941 ± 0.15 | 0.748 ± 0.069 | 1.19 ± 0.1 | 1.1 ± 0.18 | 0.887 ± 0.049 | 1.09 ± 0.18 | 1.04 ± 0.026 | 1.27 ± 0.54 |
| O=C(NCC1CCCCN1)c1cc(OCC(F)(F)F)ccc1OCC(F)(F)F (centres undefined) [Flecainide hydrochloride] | 1.22 ± 0.16 | 1.17 ± 0.17 | 1.59 ± 0.17 | 1.3 ± 0.11 | 1.49 ± 0.092 | 1.38 ± 0.12 | 0.905 ± 0.19 | – | 0.789 ± 0.3 | 2.28 ± 2.2 | 1.26 ± 0.1 | 0.815 ± 0.18 | 0.964 ± 0.17 | 0.953 ± 0.019 | 0.861 ± 0.034 | 0.478 ± 0.073 | – |
| CC(C)c1ccc2c(c1)c(SC(C)(C)C)c(CC(C)(C)C(=O)O)n2Cc1ccc(Cl)cc1 | 1.24 ± 0.17 | 1.11 ± 0.2 | 1.51 ± 0.16 | 1.44 ± 0.11 | 1.38 ± 0.15 | 1.58 ± 0.058 | 1.41 ± 0.21 | – | 0.713 ± 0.029 | 0.821 ± 0.06 | 1.15 ± 0.84 | 0.834 ± 0.23 | 0.844 ± 0.12 | 0.896 ± 0.088 | 0.433 ± 0.064 | 0.245 ± 0.064 | – |
| CCOC(=O)[C@H](CCc1ccccc1)N[C@@H](C)C(=O)N1CCC[C@H]1C(=O)O [Enalapril maleate] | 1.1 ± 0.079 | 1.83 ± 0.39 | 1.51 ± 0.24 | 1.15 ± 0.021 | 1.14 ± 0.069 | 1.29 ± 0.26 | – | 0.561 ± 0.063 | – | 1.07 ± 0.087 | 0.548 ± 0.13 | 0.573 ± 0.032 | 1.15 ± 0.068 | 0.841 ± 0.064 | 0.984 ± 0.2 | 0.634 ± 0.11 | 0.703 ± 0.34 |
| C[N+]1(C)CCC(OC(=O)C(O)(c2ccccc2)C2CCCC2)C1 (centres undefined) [Glycopyrronium bromide] | 1.16 ± 0.1 | 1.06 ± 0.024 | 0.921 ± 0.087 | 1.3 ± 0.031 | 1.3 ± 0.12 | 1.1 ± 0.16 | 0.758 ± 0.27 | 0.754 ± 0.36 | 0.656 ± 0.062 | 0.953 ± 0.094 | 1.11 ± 0.22 | 1.13 ± 0.66 | 0.922 ± 0.18 | 1.17 ± 0.059 | 1.21 ± 0.25 | – | – |
| CC(C)(C)NCC(O)c1cc(O)cc(O)c1 (centres undefined) [Terbutaline sulfate] | 1.05 ± 0.045 | 0.747 ± 0.17 | 1.11 ± 0.11 | 1.12 ± 0.066 | 1.21 ± 0.15 | 1.3 ± 0.087 | – | 0.631 ± 0.072 | – | 0.969 ± 0.32 | 1.14 ± 0.3 | 0.713 ± 0.14 | 1.14 ± 0.099 | 0.85 ± 0.2 | 0.993 ± 0.069 | 0.351 ± 0.094 | 1.07 ± 0.08 |
| Nc1nc2ccc(Cl)cc2c2nc(-c3ccco3)nn12 | 1.31 ± 0.093 | 1.32 ± 0.24 | 1.85 ± 0.3 | 1.3 ± 0.14 | 1.5 ± 0.022 | 1.57 ± 0.14 | 1.64 ± 0.23 | – | 0.9 ± 0.29 | 0.682 ± 0.12 | 0.695 ± 0.25 | 0.509 ± 0.086 | 0.981 ± 0.17 | 0.86 ± 0.053 | 0.672 ± 0.13 | 0.521 ± 0.012 | – |

2 entries from above, as comma-separated lines:
SMILES,Hoechst total cell count ratio (hAMSC donor 1 [1]; [7]),Hoechst total cell count ratio (hAMSC donor 1 [1]; [8]),Hoechst total cell count ratio (hAMSC donor 1 [1]; [9]),Hoechst total cell count ratio (hAMSC donor 2 [2]; [7]),Hoechst total cell count ratio (hAMSC donor 2 [2]; [8]),Hoechst total cell count ratio (hAMSC donor 2 [2]; [9]),transgenic luciferase activity (hAMSC donor 1 [3]; [8]),transgenic luciferase activity (hAMSC donor 2 [4]; [7]),transgenic luciferase activity (hAMSC donor 2 [4]; [8]),transfection efficiency (hAMSC donor 1 [5]; [7]),transfection efficiency (hAMSC donor 1 [5]; [8]),transfection efficiency (hAMSC donor 1 [5]; [9]),transfection efficiency (hAMSC donor 2 [6]; [7]),transfection efficiency (hAMSC donor 2 [6]; [8]),transfection efficiency (hAMSC donor 2 [6]; [9]),transgenic luciferase activity (hAMSC donor 2 [4]; [9]),transgenic luciferase activity (hAMSC donor 1 [3]; [9])
CNS(=O)(=O)Cc1ccc2[nH]cc(CCN(C)C)c2c1 [Sumatriptan succinate],1.41 ± 0.043,1.21 ± 0.25,1.39 ± 0.097,1.33 ± 0.072,1.2 ± 0.1,1.22 ± 0.1,1.37 ± 0.24,–,0.63 ± 0.48,0.969 ± 0.15,1.15 ± 0.36,1.35 ± 0.57,0.851 ± 0.23,0.87 ± 0.11,1.03 ± 0.047,0.669 ± 0.15,–
CC(N)C12CC3CC(CC(C3)C1)C2 (centres undefined) [Flumadine hydrochloride],1.06 ± 0.054,1.01 ± 0.039,0.968 ± 0.065,1.21 ± 0.13,1.38 ± 0.29,1.43 ± 0.25,0.653 ± 0.2,0.864 ± 0.16,1.089 ± 0.0053,0.916 ± 0.18,0.533 ± 0.13,1.5 ± 0.58,1.13 ± 0.28,1.17 ± 0.2,1.05 ± 0.31,–,–
